Data as given in PubChem BioAssay AID1508597 (Cure First, 2020)
This is a random part of the about 2,100 reagents, under one of the conditions tested. 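Calls flag viability under 80% in either arm, not effects specific to rucaparib; the reference for percent is not stated.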 Not given: the 100% reference.

Purpose: 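Genes whose silencing sensitises or protects ovarian cancer cells against rucaparib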 (primary screen)
System: human ovarian carcinoma lines grown from tumours: OCI-P5x (papillary serous) and OCI-C5x (clear cell)
Knock-down reagent: siRNA pool against human genes, 1.25 pmol siRNA per well
Timing: 72 h or 96 h, depending on the cell culture
Challenge: rucaparib 20 µM (about IC30) or vehicle, present until read-out
Rucaparib or vehicle: Vehicle
Cell line: OCI-P5x (serous)
Measured: 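Luminescent ATP-based viability assay read 72 or 96 h after transfection, depending on culture, given as normalised percent viability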
Direction: viability, normalised: higher = more viable cells remaining
Rule for the call: 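a well counts as a hit if its normalised viability is under 80 percent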
Calls: active = viability under 80%; inactive = viability 80% or more

The first 3 records as a preview:
Gene	technical replicate	viability, normalised (%)	Outcome
PIAS2	1	59.2	active
PIAS2	2	65.6	active
PIAS2	3	67.6	active

Results, repeating the preview:
Gene	technical replicate	viability, normalised (%)	Outcome
PIAS2	1	59.2	active
PIAS2	2	65.6	active
PIAS2	3	67.6	active
UBR7	1	74.7	active
UBR7	2	49.7	active
UBR7	3	75.6	active
PCDHB9	1	70.7	active
PCDHB9	2	80.8	inactive
PCDHB9	3	92.2	inactive
RAD51	1	67.9	active
RAD51	2	81.8	inactive
RAD51	3	61.7	active
PRKAG1	1	112	inactive
PRKAG1	2	106	inactive
PRKAG1	3	86.2	inactive
NIPBL	1	50.3	active
NIPBL	2	54.4	active
NIPBL	3	50.8	active
BMP2K	1	75.4	active
BMP2K	2	49.9	active
BMP2K	3	60.6	active
PIK3CG	1	98.6	inactive
PIK3CG	2	84.9	inactive
PIK3CG	3	80.9	inactive
